Here are results for two molecules from paper PMC4192513, “A Novel Protein-Protein Interaction in the RES (REtention and Splicing) Complex” (The Journal of Biological Chemistry, 2014).

Protein sequences, listed by entry. Tags and fused reporters are not part of them. Lines headed by an entry give the natural chain unless they say otherwise; changes in a name come on top.
UniProt P46947: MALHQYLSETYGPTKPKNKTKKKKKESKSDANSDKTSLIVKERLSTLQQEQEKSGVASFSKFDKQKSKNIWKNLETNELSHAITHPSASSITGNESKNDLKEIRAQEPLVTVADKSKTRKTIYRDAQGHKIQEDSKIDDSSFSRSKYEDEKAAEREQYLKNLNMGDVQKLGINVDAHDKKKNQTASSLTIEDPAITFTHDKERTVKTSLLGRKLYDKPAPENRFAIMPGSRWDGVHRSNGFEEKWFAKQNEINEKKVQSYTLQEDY

These are yes or no findings as the source states them, for the method shown. For some of these results: In cells and extracts the contact can be indirect. Some results given as binding are weak or reduced against the parent protein; the word gives no strength. For some of these results: Sequences can lack the tags named with a protein.

Assay [1] concerns the target Snu17p (residues 1-113) (S. cerevisiae) (UniProt P40565). Nature of the assay: ITC; VP-ITC, 25 °C, NMR buffer (20 mM sodium phosphate pH 6.3, 25 mM NaCl, 2 mM DTT or TCEP); Snu17p (residues 1-113) 30-70 uM in the cell, Bud13p ligands 0.6-1.1 mM in the syringe; one- or two-step binding models; both purified.
Assay [2] has the same target. Nature of the assay: NMR titration; 1H,15N correlation (HSQC) spectra of 15N-labelled Snu17p (residues 1-113) on addition of Bud13p peptides; 298 K; 20 mM sodium phosphate pH 6.3, 25 mM NaCl, 2 mM DTT or TCEP; both purified.
For assay [3], the target named is T1, His6-Snu17p F95A,K96D,I97A (operon co-expression) (S. cerevisiae) (UniProt P40565).
T1 sequence: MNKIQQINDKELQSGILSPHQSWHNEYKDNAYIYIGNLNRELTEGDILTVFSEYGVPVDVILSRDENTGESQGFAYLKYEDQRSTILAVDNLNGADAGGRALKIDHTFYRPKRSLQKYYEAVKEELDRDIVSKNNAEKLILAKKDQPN
Nature of the assay: pull-down; one-step Ni-NTA purification of His6-Snu17p, Bud13p and Pml1p co-expressed from an operon in E. coli; fractions on Coomassie-stained denaturing gels.

Assay [4] deals with T2, His6-Snu17p (wild type, operon co-expression) (S. cerevisiae) (UniProt P40565).
T2 sequence: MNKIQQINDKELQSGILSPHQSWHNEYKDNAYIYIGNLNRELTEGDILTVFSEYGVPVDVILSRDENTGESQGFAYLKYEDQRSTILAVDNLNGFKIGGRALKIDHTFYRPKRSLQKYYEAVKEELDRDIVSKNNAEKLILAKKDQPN
The description is as above.

Take AIMPGSRWDGVHRS (peptide, UniProt P46947 225-238) [Bud13p peptide (residues 225-238)]: the binding result in assay [1] and in assay [2] was “binds weakly” in each case.

B1: Pml1p (operon co-expression) (protein, UniProt Q07930 1-204)
chain: MFHRRKRPYNTRNYGHDDKKFKSQYIDIMPDFSPSGLLELESNNKEGIALKHVEPQDAISPDNYMDMLGLEARDRTMYELVIYRKNDKDKGPWKRYDLNGRSCYLVGRELGHSLDTDLDDRTEIVVADIGIPEETSSKQHCVIQFRNVRGILKCYVMDLDSSNGTCLNNVVIPGARYIELRSGDVLTLSEFEEDNDYELIFMNV
Consider B1, for which the binding entry in assay [3] and in assay [4] was “binds” throughout.
